Some results were stated once for a whole list of compounds, not compound by compound.
Tested on: cucumber powdery mildew fungus (Sphaerotheca fuliginea, a QoI-resistant strain, cytochrome b position 143 glycine to alanine)
Type: in vivo
Conditions: 500 ppm water dilution sprayed on cucumber (SAGAMI HANJIRO); QoI-resistant strain inoculated after air-drying

Row | SMILES | area of lesion spots on the treated plant relative to that on an untreated plant [%]
1 | Cc1cccc(-n2nnn(C)c2=O)c1COc1c(C)c(-c2ccccc2)nn1C [present compound 8] | ≤ 30
2 | COc1cccc(-n2nnn(C)c2=O)c1COc1cc(-c2cccc(Cl)c2)nn1C [present compound 2] | ≤ 30
3 | Cc1cccc(-n2nnn(C)c2=O)c1COc1nc(-c2cccc(Cl)c2)co1 [present compound 19, 1-(2-{[4-(3-chlorophenyl)-1,3-oxazol-2-yloxy]methyl}-3-methylphenyl)-4-methyl-1,4-dihydrotetrazol-5-one] | ≤ 30
4 | Cc1cccc(-n2nnn(C)c2=O)c1COc1nn(C)c(-c2ccc(Cl)cc2)c1C [present compound 29, 1-(2-{[1,4-dimethyl-5-(4-chlorophenyl)-1H-pyrazol-3-yloxy]methyl}-3-methylphenyl)-4-methyl-1,4-dihydrotetrazol-5-one] | ≤ 30
5 | CCn1nc(-c2cccc(Cl)c2)cc1OCc1c(OC)cccc1-n1nnn(C)c1=O [present compound 5] | ≤ 30
6 | Cc1cccc(-n2nnn(C)c2=O)c1COc1cc(-c2ccc(Cl)cc2)n(C)n1 [present compound 25, 1-(2-{[1-methyl-5-(4-chlorophenyl)-1H-pyrazol-3-yloxy]methyl}-3-methylphenyl)-4-methyl-1,4-dihydrotetrazol-5-one] | ≤ 30
7 | COc1cccc(-n2nnn(C)c2=O)c1COc1cc(-c2ccccc2Cl)nn1C [present compound 1, 1-{2-[5-(2-chlorophenyl)-2-methyl-2H-pyrazol-3-yloxymethyl]-3-methoxyphenyl}-4-methyl-1,4-dihydro-tetrazol-5-one] | ≤ 30

Tested on: cucumber powdery mildew fungus (Sphaerotheca fuliginea, a QoI-resistant strain, cytochrome b position 143 glycine to alanine)
Type: in vivo
Conditions: 200 ppm water dilution sprayed on cucumber (SAGAMI HANJIRO); QoI-resistant strain inoculated after air-drying

Row | SMILES | area of lesion spots on the treated plant relative to that on an untreated plant [%]
8 | Cc1cccc(-n2nnn(C)c2=O)c1COc1nc(-c2ccc(Cl)cc2)co1 [present compound 17, 1-(2-{[4-(4-chlorophenyl)-1,3-oxazol-2-yloxy]methyl}-3-methylphenyl)-4-methyl-1,4-dihydrotetrazol-5-one] | ≤ 30
9 | COc1ccccc1-c1coc(OCc2c(C)cccc2-n2nnn(C)c2=O)n1 [present compound 16, 1-(2-{[4-(2-methoxyphenyl)-1,3-oxazol-2-yloxy]methyl}-3-methylphenyl)-4-methyl-1,4-dihydrotetrazol-5-one] | ≤ 30
